# Experimental data as given in the supplement of paper PMC4604168 (melanoma cell lines).
# The other results are listed elsewhere or left out. Single values are uncertain, as repeats are few or missing.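 Cells were imaged in 1,536-well plates, and nuclei stained with an antibody against cleaved PARP were counted against all DNA-stained nuclei to give the apoptosis fraction. Screening doses were chosen to leave most cells alive, and resting and induced cleaved-PARP levels differ strongly between cell lines.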
# Columns and labels:
# Experiment in all cases: cleaved PARP positive nuclei fraction relative to DMSO control; melanoma cells; higher = more apoptosis
# Conditions in all cases: library dose: low library concentration; 72 h
# CBRC034 = system: CBRC034 (line from a melanoma biopsy)
# COLO792 = system: COLO792
# COLO800 = system: COLO800
# COLO829 = system: COLO829
# G361 = system: G361
# IPC-298 = system: IPC-298
# IST-MEL1 = system: IST-MEL1
# LB2518-MEL = system: LB2518-MEL
# LOXIMVI = system: LOXIMVI
# MZ2-MEL = system: MZ2-MEL
# MeWo = system: MeWo
# RPMI7951 = system: RPMI7951
# RVH-421 = system: RVH-421
# SkMel28 = system: SkMel28
# SkMel30 = system: SkMel30
# SkMel5 = system: SkMel5
# UACC257 = system: UACC257
# UACC62 = system: UACC62
SMILES,cleaved PARP positive nuclei fraction (CBRC034) [%],cleaved PARP positive nuclei fraction (COLO792) [%],cleaved PARP positive nuclei fraction (COLO800) [%],cleaved PARP positive nuclei fraction (COLO829) [%],cleaved PARP positive nuclei fraction (G361) [%],cleaved PARP positive nuclei fraction (IPC-298) [%],cleaved PARP positive nuclei fraction (IST-MEL1) [%],cleaved PARP positive nuclei fraction (LB2518-MEL) [%],cleaved PARP positive nuclei fraction (LOXIMVI) [%],cleaved PARP positive nuclei fraction (MZ2-MEL) [%],cleaved PARP positive nuclei fraction (MeWo) [%],cleaved PARP positive nuclei fraction (RPMI7951) [%],cleaved PARP positive nuclei fraction (RVH-421) [%],cleaved PARP positive nuclei fraction (SkMel28) [%],cleaved PARP positive nuclei fraction (SkMel30) [%],cleaved PARP positive nuclei fraction (SkMel5) [%],cleaved PARP positive nuclei fraction (UACC257) [%],cleaved PARP positive nuclei fraction (UACC62) [%]
"C[C@@H]1CCN(C(=O)CC#N)C[C@@H]1N(C)c1ncnc2[nH]ccc12 + O=C(Nc1ccccc1)c1cc([N+](=O)[O-])ccc1Cl [GW9662] (first compound 1 µM, partner dose 2 µM)",24,145,142,218,105,56,57.7,82.7,52.7,169,34.3,40.4,114,84.9,150,39.3,144,48.5
"C[C@@H]1CCN(C(=O)CC#N)C[C@@H]1N(C)c1ncnc2[nH]ccc12 + O=c1cc(-c2cccc3c2Sc2ccccc2S3)oc(N2CCOCC2)c1 [KU55933] (first compound 1 µM, partner dose 1 µM)",264,122,103,119,180,88.4,55.6,78.6,83.9,148,51.7,77.7,70,77.5,23.1,27.1,57.3,78.4
"Cn1nnc2c(C(N)=O)ncn2c1=O [temozolomide] + O=C(Nc1ccccc1)c1cc([N+](=O)[O-])ccc1Cl [GW9662] (first compound 2 µM, partner dose 2 µM)",66.6,55.6,108,185,51.7,38.2,126,41.5,95.5,92.6,111,79.6,91.1,35.5,55.6,121,173,194
"Cc1cc(N2CCOCC2)cc2[nH]c(-c3c(NC[C@@H](O)c4cccc(Cl)c4)cc[nH]c3=O)nc12 + COc1ccc(COc2ccc(Cc3cnc(N)nc3N)cc2OC)cc1 [GW2580] (first compound 0.2 µM, partner dose 1 µM)",47.9,140,123,105,130,120,170,176,39.8,111,115,121,161,88.5,211,20.3,174,142
"CC(C)(C)c1cnc(CSc2cnc(NC(=O)C3CCNCC3)s2)o1 + CCN(CC)CCCCNc1ncc2cc(-c3cc(OC)cc(OC)c3)c(NC(=O)NC(C)(C)C)nc2n1 [PD173074] (first compound 0.01 µM, partner dose 0.1 µM)",32.8,94.2,190,44.7,119,108,111,82.5,24,126,71.7,86.7,49.9,94.3,443,80.7,130,46.1
"Cn1c(Nc2ccc(C(F)(F)F)cc2)nc2cc(Oc3ccnc(-c4ncc(C(F)(F)F)[nH]4)c3)ccc21 + O=S(=O)(c1ccccc1)N(CC(F)(F)F)c1ccc(C(O)(C(F)(F)F)C(F)(F)F)cc1 [T0901317] (first compound 0.08 µM, partner dose 1.4 µM)",105,452,139,89.6,162,155,90.2,200,35.6,130,168,135,71.1,184,41.3,77.3,920,149
"O=C(Nc1cccc(Cl)c1)Nc1ncc(CCNc2ncnc3ccsc23)s1 + CCN(CC)CCCCNc1ncc2cc(-c3cc(OC)cc(OC)c3)c(NC(=O)NC(C)(C)C)nc2n1 [PD173074] (first compound 0.0008 µM, partner dose 0.1 µM)",68.8,119,228,65.1,49.5,78,30.5,185,31.2,139,51.2,98.6,61.2,157,58.9,49.6,127,143
"OCCn1cc(-c2cnc3nnn(Cc4ccc5ncccc5c4)c3n2)cn1 + Oc1nc(-c2ccc(C(F)(F)F)cc2)nc2c1CSCC2 [XAV939] (first compound 1 µM, partner dose 2 µM)",45.1,201,188,32.5,228,40.1,271,84.6,425,178,39.1,61.1,111,81,18,147,110,22.2
"Cn1cncc1[C@@](N)(c1ccc(Cl)cc1)c1ccc2c(c1)c(-c1cccc(Cl)c1)cc(=O)n2C [tipifarnib] + CC(C)CCN1c2nc(Nc3cc(F)c(O)c(F)c3)ncc2N(C)C(=O)C1C [BID1870] (first compound 0.01 µM, partner dose 0.2 µM)",88.6,130,124,80.7,114,63.5,174,264,68,89.8,198,25.5,45.4,103,136,25.4,110,252
"OCCn1cc(-c2cnc3nnn(Cc4ccc5ncccc5c4)c3n2)cn1 + COc1ccc2c(c1)CCC1C2CCC2(C)C(NCCCCCCN3C(=O)C=CC3=O)CCC12 [U73122] (first compound 1 µM, partner dose 0.4 µM)",47.2,84.8,72.1,80.5,26.5,154,133,80.2,110,42.5,63.9,117,138,112,49.1,34,65.1,62.2
"COCC[n+]1c2c(n(Cc3cnccn3)c1C)C(=O)c1ccccc1C2=O + Cn1cc(/C=C2\C(=O)Nc3cccnc32)c2ccccc21 [GW441756] (first compound 0.0004 µM, partner dose 0.4 µM)",49,102,129,176,86.5,44.4,133,159,123,134,81,332,65.7,103,31.6,68.8,81.8,177
"Cc1cc(N2CCOCC2)cc2[nH]c(-c3c(NC[C@@H](O)c4cccc(Cl)c4)cc[nH]c3=O)nc12 + COC(=O)c1sccc1S(=O)(=O)Nc1ccc(Nc2ccccc2)cc1OC [GSK0660] (first compound 0.2 µM, partner dose 1 µM)",48.4,238,46.5,109,161,91.6,147,76,101,146,52.7,40.9,53.6,84.9,75.7,102,92,95
"COCC[n+]1c2c(n(Cc3cnccn3)c1C)C(=O)c1ccccc1C2=O + Oc1cc(-c2nc(-c3ccccc3)[nH]c2-c2ccncc2)ccc1Cl [L779450] (first compound 0.0004 µM, partner dose 0.2 µM)",113,182,256,92.5,80.5,213,32.5,339,122,489,117,258,32.6,74.1,29.5,191,147,151
"Cn1cncc1[C@@](N)(c1ccc(Cl)cc1)c1ccc2c(c1)c(-c1cccc(Cl)c1)cc(=O)n2C [tipifarnib] + Oc1nc(-c2ccc(C(F)(F)F)cc2)nc2c1CSCC2 [XAV939] (first compound 0.01 µM, partner dose 2 µM)",40.5,72.5,143,134,95.1,43.6,259,202,40.2,118,53.9,75.4,27.7,138,14.3,132,127,45.2
"O=C(CCCCCCC(=O)Nc1ccccc1)NO [vorinostat] + COc1cc(N2CCC(N3CCN(C)CC3)CC2)ccc1Nc1ncc(Cl)c(Nc2ccccc2S(=O)(=O)C(C)C)n1 [NVP-TAE684] (first compound 0.08 µM, partner dose 0.08 µM)",57.5,123,97.7,59,82.5,110,131,80.1,36.8,102,52.8,80.8,23.1,136,124,32.8,218,81.1

# An excerpt of these results, bar-delimited.
SMILES | cleaved PARP positive nuclei fraction (CBRC034) [%] | cleaved PARP positive nuclei fraction (COLO792) [%] | cleaved PARP positive nuclei fraction (COLO800) [%] | cleaved PARP positive nuclei fraction (COLO829) [%] | cleaved PARP positive nuclei fraction (G361) [%] | cleaved PARP positive nuclei fraction (IPC-298) [%] | cleaved PARP positive nuclei fraction (IST-MEL1) [%] | cleaved PARP positive nuclei fraction (LB2518-MEL) [%] | cleaved PARP positive nuclei fraction (LOXIMVI) [%] | cleaved PARP positive nuclei fraction (MZ2-MEL) [%] | cleaved PARP positive nuclei fraction (MeWo) [%] | cleaved PARP positive nuclei fraction (RPMI7951) [%] | cleaved PARP positive nuclei fraction (RVH-421) [%] | cleaved PARP positive nuclei fraction (SkMel28) [%] | cleaved PARP positive nuclei fraction (SkMel30) [%] | cleaved PARP positive nuclei fraction (SkMel5) [%] | cleaved PARP positive nuclei fraction (UACC257) [%] | cleaved PARP positive nuclei fraction (UACC62) [%]
Cn1c(Nc2ccc(C(F)(F)F)cc2)nc2cc(Oc3ccnc(-c4ncc(C(F)(F)F)[nH]4)c3)ccc21 + O=S(=O)(c1ccccc1)N(CC(F)(F)F)c1ccc(C(O)(C(F)(F)F)C(F)(F)F)cc1 [T0901317] (first compound 0.08 µM, partner dose 1.4 µM) | 105 | 452 | 139 | 89.6 | 162 | 155 | 90.2 | 200 | 35.6 | 130 | 168 | 135 | 71.1 | 184 | 41.3 | 77.3 | 920 | 149
Cn1cncc1[C@@](N)(c1ccc(Cl)cc1)c1ccc2c(c1)c(-c1cccc(Cl)c1)cc(=O)n2C [tipifarnib] + Oc1nc(-c2ccc(C(F)(F)F)cc2)nc2c1CSCC2 [XAV939] (first compound 0.01 µM, partner dose 2 µM) | 40.5 | 72.5 | 143 | 134 | 95.1 | 43.6 | 259 | 202 | 40.2 | 118 | 53.9 | 75.4 | 27.7 | 138 | 14.3 | 132 | 127 | 45.2
